In patent US20250264455A1:
Results are given in words; binding and its absence hold for the method and conditions named. Binding calls can cover weak binding; strength is not graded here. Sequences can lack the tags named with a protein.

Target: GFP-tagged receptor GluCl (Drosophila)
Experiment: immunohistochemistry of Drosophila brains

B1: QtEnc-antiGFPintrabody (protein)
chain: MNKSQLYPDSPLTDQDFNQLDQTVIEAARRQLVGRRFIELYGPLGRGMQSVFNDIFMESHEAKMDFQGSFDTEVESSRRVNYTIPMLYKDFVLYWRDLEQSKALDIPIDFSVAANAARDVAFLEDQMIFHGSKEFDIPGLMNVKGRLTHLIGNWYESGNAFQDIVEARNKLLEMNHNGPYALVLSPELYSLLHRVHKDTNVLEIEHVRELITAGVFQSPVLKGKSGVIVNTGRNNLDLAISEDFETAYLGEEGMNHPFRVYETVVLRIKRPAAICTLIDPEEGGGGSGPGGSGVQLVESGGALVQPGGSLRLSCAASGFPVNRYSMRWYRQAPGKEREWVAGMSSAGDRSSYEDSVKGRFTISRDDARNTVYLQMNSLKPEDTAVYYCNVNVGFEYWGQGTQVTVSS
binding: binds
